At least one read-out could not be matched to a standard name with certainty.
Target: T1, NDO/NahB/NahC (Pseudomonas putida, UniProt P0A110)
T1 construct: made in house; host or cells: E. coli JM109 (DE3) (pDTG141) for NDO; E. coli BL21 Star (DE3) for NahB and NahC
Experiment: Colorimetric detection of fluorene in spiked clam samples, NDO/NahB/NahC assay
Assay type: biochemical
Conditions: clam homogenate spiked to 80 ppm fluorene, dichloromethane extraction
Method: 2 tubes each of NahB, Nahc, and NDO enzymes (1.7 ml aliquotes) were thawed from −20 C along with 2.6 mM NADH in water. 2.5 ml each of the NahC and NahB enzymes were desalted using PD-10 gel filtration and buffer exchanged into 20 mM Tris-Cl pH 8.5 at the same time. Once all of the reagents were thawed and desalted, positive and negative naphthalene reaction were made containing 127 ul each of NahB, NahC, and NDO with 20 ppm naphthalene in dimethylformamide (negative reactions contained only equal amounts dimethylformamide) and 0.133 mM NADH final concentration with a final reaction volume of 405 ul. The reaction was run at 25° C. for 2 hours and the sample absorbance was measured using a BioTek Synergy2 plate reader in the 320-640 nm wavelength range. […] Reactions for all PAH's conducted in the same, or a very similar format, depending on the volume of sample in the reaction. FIG. 4 depicts a spectrophotometric graph showing the absorbance caused by the presence of naphthalene placed in the above NDO/NahB/NahC assay.
Approximately 25 g of clams were homogenized using a blender; a 2 g sample of this 25 g preparation was spiked to 80 ppm fluorene. […] The reaction was run for 2 hr at 25° C. and then read on a BioTek Synergy2 plate reader from 320-640 nm. FIG. 5 depicts the absorbance of fluorene spiked clam samples in the NDO/NahB/NahC assay.

Chains of the proteins cited; added tags and fusions are not shown. Lines headed by an entry give the natural chain unless they say otherwise; changes in a name come on top.
UniProt P0A110: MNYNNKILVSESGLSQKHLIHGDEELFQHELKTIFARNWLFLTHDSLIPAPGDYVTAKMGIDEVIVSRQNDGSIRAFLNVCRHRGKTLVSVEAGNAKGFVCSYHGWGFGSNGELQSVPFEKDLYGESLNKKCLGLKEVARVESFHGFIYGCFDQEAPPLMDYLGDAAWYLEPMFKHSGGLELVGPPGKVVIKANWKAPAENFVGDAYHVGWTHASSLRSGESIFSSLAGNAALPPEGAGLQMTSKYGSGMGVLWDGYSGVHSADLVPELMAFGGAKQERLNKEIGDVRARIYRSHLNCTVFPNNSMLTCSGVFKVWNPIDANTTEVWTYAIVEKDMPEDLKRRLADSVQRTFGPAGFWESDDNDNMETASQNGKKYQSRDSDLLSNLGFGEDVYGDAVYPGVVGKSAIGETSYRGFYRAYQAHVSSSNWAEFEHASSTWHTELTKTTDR

SMILES: c1ccc2c(c1)Cc1ccccc1-2 [fluorene]
- recovery of fluorene from the extraction: good recovery

Source: patent US9127301B2, “Method of detecting the presence of polycyclic aromatic hydrocarbons” (BIOO SCIENTIFIC CORPORATION, priority 2012, dated 2015)
